For at least one entry, the source does not settle the construct or the ends of the probe. Results from cells or extracts need not show a direct contact. For some assays here: A negative result means that nothing was seen under these conditions. For some assays here: The comparison behind a weaker result is the experiment's own reference, which may not be listed here.

By UniProt entry, the sequences of proteins in these tests, tags left out.
UniProt Q01196, whole entry: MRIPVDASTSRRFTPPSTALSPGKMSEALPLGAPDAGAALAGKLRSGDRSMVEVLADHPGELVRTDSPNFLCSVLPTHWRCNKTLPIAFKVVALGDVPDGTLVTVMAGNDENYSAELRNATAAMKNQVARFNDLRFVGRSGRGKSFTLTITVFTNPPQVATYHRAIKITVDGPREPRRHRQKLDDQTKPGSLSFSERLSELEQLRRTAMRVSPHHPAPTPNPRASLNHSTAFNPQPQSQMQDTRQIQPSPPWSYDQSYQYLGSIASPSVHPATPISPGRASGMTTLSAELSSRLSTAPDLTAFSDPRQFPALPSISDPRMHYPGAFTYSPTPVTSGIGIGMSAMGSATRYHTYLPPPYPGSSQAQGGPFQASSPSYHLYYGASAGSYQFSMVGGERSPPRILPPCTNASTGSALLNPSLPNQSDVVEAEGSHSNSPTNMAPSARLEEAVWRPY

Three sequences from PMC1950574 can be followed below.

Data set [1] concerns the target RUNX1 (AML1) (UniProt Q01196). The experiment in a line: competition with a labelled probe. As to conditions: protein in an extract.
Data set [2] deals with RUNX1 (AML1) (UniProt Q01196). The experiment in a line: EMSA supershift. As to conditions: anti-RUNX1 supershift, anti-ATF-2 control gave none; Promega Gel Shift Assay System, HL60 nuclear extract, 6% polyacrylamide TBE gel; binding buffer composition, pH and temperature not stated; protein in an extract; label: 32P 5'-end (probe), unlabeled as competitor.
Data set [3] concerns the target RUNX1 (AML1) (UniProt Q01196). The data set can be described thus: EMSA. As to conditions: direct labeled probe, compared with wt; Promega Gel Shift Assay System, HL60 nuclear extract, 6% polyacrylamide TBE gel; binding buffer composition, pH and temperature not stated; protein in an extract; label: 32P 5'-end (probe), unlabeled as competitor.

Consider “CTCTTGTGACCACCACTCAT (double strand) [CXCR1 intron RUNX1 site, common allele (wt)]”, for which the binding result is reported as “binds” in data set [1] (unlabeled wt 10-100x vs labeled wt probe, label: 32P 5'-end (probe), unlabeled as competitor) and “binds” in data set [2].
Turning to “TTGAACGTCACATCTTTAAC (double strand) [unspecific competitor]”, the binding result in data set [1] (unlabeled 100x vs labeled wt probe) is listed as “no binding”.
As to “CTCTTGTGACCAGCACTCAT (double strand) [CXCR1 intron RUNX1 site, SNP1 (variant 1, 217C/G)]”, the binding result is given as “binds more weakly” in data set [1] (unlabeled SNP1 10-100x vs labeled wt probe, label: 32P 5'-end (probe), unlabeled as competitor) and “binds more weakly” in data set [3].
